PubChem BioAssay AID540276 (National Center for Advancing Translational Sciences (NCATS), 2011)
Hit rate of the full screen: of about 300,000 compounds, about 5,400 (1.8%) were called active. Inconclusive results, whose numbers are uncertain, are shown with a selection of clear calls. Calls come from the whole dose curve; tested in HEK293 cells. Potencies beside an inconclusive call are fits to weak or partial responses and may not hold up. Residues, ends and D or L forms follow the SMILES beside them. *: point of attachment. Boc = CC(C)(C)OC(=O)*

assay: qHTS for inhibitors of binding or entry into cells for Marburg Virus; conditions: Marburg virus pseudotyped entry inhibition, cell reporter; series mostly up to 37.8 µM
Potency is the fitted concentration of half-maximal effect.

Question: Which Potency does the source give for `CC1(C)Cc2ccccc2/C(=C/C(=O)N2CCCCCC2)N1` here?
Answer: The Potency was inconclusive: 29.1 µM [inhibitor, single point].

Question: Which Potency does the source give for `CCn1cc(C(=O)NCCc2ccc(Cl)cc2)c(=O)c2cc(S(=O)(=O)N3CCC(C)CC3)ccc21` here?
Answer: Its Potency is inconclusive: 0.562 µM [activator, full curve, poor fit].

Question: With `Cc1ccc(C(=O)N2CCN(Cc3ccc4c(c3)OCO4)CC2)o1` as the molecule, how does the Potency read?
Answer: The Potency was “inactive”.

Question: With `O=c1c2c3c(sc2nc2n1CCC2)CCCCC3` as the molecule, how does the Potency read?
Answer: The Potency was inconclusive: 2 µM [activator, full curve].

Question: Which Potency does the source give for `COc1ccccc1NS(=O)(=O)c1cccc(NC(=O)Nc2ccc(Cl)cc2)c1` here?
Answer: The Potency was inconclusive: 11.2 µM [inhibitor, partial curve, poor fit].

Question: Which Potency does the source give for `CC(C)(C)C(=O)/C=C1\NC(=O)CS1` here?
Answer: The Potency was “inactive”.

Question: Which Potency does the source give for `C/C(=N\NC(=O)c1cccc(C)c1)c1cccc(NC(=O)c2ccco2)c1` here?
Answer: The Potency was “inactive”.

Question: For `O=C(NC1CCCCC1)N1CCc2ccccc21`, which Potency is on record?
Answer: The Potency was “inactive”.

Question: For `CCOC(=O)C12CC1/C(=N/O)c1ccccc1O2` (stereo not drawn), which Potency is on record?
Answer: The Potency was inconclusive: 1.26 µM [inhibitor, partial curve].

Question: With `COc1ccc(/C=N/NC(=O)c2nc(Cl)c(Cl)c(N)c2Cl)cc1COc1ccccc1F` as the molecule, how does the Potency read?
Answer: The Potency was inconclusive: 35.5 µM [inhibitor, single point].

Question: For `O=C(NCCN1CCN(c2ccccc2)CC1)C1CCN(S(=O)(=O)c2cccs2)CC1`, which Potency is on record?
Answer: Its Potency is inconclusive: 0.562 µM [inhibitor, full curve].

Question: Which Potency does the source give for `CC1CC(C)CN(C(=O)CSc2nnc3ccccn23)C1` (stereo not drawn) here?
Answer: The Potency was inconclusive: 3.55 µM [inhibitor, single point].

Question: Which Potency does the source give for `O=C(N/N=C/c1c(O)ccc2ccccc12)c1ccc(Br)o1` here?
Answer: Its Potency is inconclusive: 8.91 µM [inhibitor, partial curve, poor fit].

Question: Which Potency does the source give for `COc1ccc(-c2csc3ncnc(N4CCN(S(=O)(=O)c5ccc(C)c(C)c5)CC4)c23)cc1` here?
Answer: Its Potency is inconclusive: 11.2 µM [inhibitor, partial curve, poor fit].

Question: With `O=C(C1CCN(S(=O)(=O)c2cccc3cccnc23)CC1)N1CCN(c2ccc(Cl)cc2)CC1` as the molecule, how does the Potency read?
Answer: Its Potency is “inactive”.

Question: Which Potency does the source give for `CCCC/C(O)=C1\C(=O)CC(C)(C)CC1=Nc1ccccc1OC` here?
Answer: Its Potency is inconclusive: 29.1 µM [inhibitor, single point].

Question: With `O=C(c1ccccc1)N1CCN(C(=O)c2ccccc2)C1c1ccccc1` as the molecule, how does the Potency read?
Answer: The Potency was inconclusive: 5.62 µM [inhibitor, single point].

Question: For `CSCCC(NC(=O)OC(C)(C)C)C(=O)NC(CC(C)C)C(N)=O` (stereo not drawn) (Boc-Met-Leu-NH2; configuration not given here), which Potency is on record?
Answer: Its Potency is inconclusive: 4.47 µM [inhibitor, single point].

Question: Which Potency does the source give for `CSc1nc(=NC(C)=O)ss1` here?
Answer: The Potency was “inactive”.

Question: With `O=S(=O)(c1ccc(Br)cc1)N1CCCc2ccccc21` as the molecule, how does the Potency read?
Answer: The Potency was inconclusive: 22.4 µM [inhibitor, partial curve, poor fit].

Question: Which Potency does the source give for `Cc1nn(-c2ccccc2)c(Cl)c1C(=O)NCC(C)c1ccccc1` (stereo not drawn) here?
Answer: The Potency was inconclusive: 2.24 µM [activator, single point].

Question: With `Cc1cccc(CN2CCN(CC(=O)N3CCC4(CC3)OCCO4)C2=O)c1` as the molecule, how does the Potency read?
Answer: The Potency was inconclusive: 0.651 µM [inhibitor, full curve, poor fit].

Question: Which Potency does the source give for `O=C(CCCNc1ccccc1)N/N=C/c1cccs1` here?
Answer: The Potency was inconclusive: 35.5 µM [activator, partial curve, poor fit].

Question: With `COc1ccccc1C1CCN(c2ccc([N+](=O)[O-])c(OC)c2)CC1` as the molecule, how does the Potency read?
Answer: Its Potency is “inactive”.

Question: Which Potency does the source give for `CC(Oc1ccc(Br)cc1)C(=O)N1CCc2ccccc21` (stereo not drawn) here?
Answer: Its Potency is “inactive”.

Question: For `Cc1ccc(NC(=O)c2cncc(Br)c2)nc1`, which Potency is on record?
Answer: Its Potency is inconclusive: 6.31 µM [activator, single point].

Question: Which Potency does the source give for `COc1ccccc1CNS(=O)(=O)c1c(C(=O)N2CCCCCC2)c(C)n(C)c1C` here?
Answer: Its Potency is inconclusive: 2.51 µM [inhibitor, partial curve, poor fit].

Question: With `O=C(COC(=O)[C@H](Cc1ccccc1)N1C(=O)c2ccccc2C1=O)Nc1ccc2c(c1)OCO2` as the molecule, how does the Potency read?
Answer: The Potency was inconclusive: 22.4 µM [inhibitor, single point].

Question: For `CN1N=C(c2ccc(Cl)cc2)CC(c2ccc(Cl)cc2)C1=O` (stereo not drawn), which Potency is on record?
Answer: The Potency was inconclusive: 35.5 µM [inhibitor, single point].

Question: Which Potency does the source give for `CCCN(CC(=O)Nc1ccccc1C)C(=O)CCl` here?
Answer: Its Potency is inconclusive: 14.1 µM [inhibitor, partial curve, poor fit].

Question: For `O=C(CCNS(=O)(=O)c1ccc(Cl)cc1)OCC(=O)c1ccc[nH]1`, which Potency is on record?
Answer: Its Potency is “inactive”.

Question: For `O=C(NCC(=O)N1CCCCCC1)c1ccc(Cl)cc1`, which Potency is on record?
Answer: Its Potency is inconclusive: 6.31 µM [activator, partial curve].

Question: Which Potency does the source give for `COc1cc(C(=O)N[C@H](C(=O)NC2CCCc3ccccc32)C(C)C)cc(OC)c1OC` (stereo partly drawn) here?
Answer: The Potency was inconclusive: 2.82 µM [inhibitor, single point].

Question: Which Potency does the source give for `COc1ccc(CCNCc2ccc(OCC(=O)N3CCCCC3)c(OC)c2)cc1OC` here?
Answer: Its Potency is “inactive”.

Question: Which Potency does the source give for `COc1ccc(Cn2nnnc2CN2CCC(O)(c3ccc(F)cc3)CC2)cc1` here?
Answer: Its Potency is inconclusive: 6.31 µM [inhibitor, partial curve, poor fit].

Question: Which Potency does the source give for `O=C(O)c1ccc2ncsc2c1` here?
Answer: The Potency was “inactive”.

Question: For `Cc1cc(C)c(C(=O)OCC(=O)NCc2cccs2)c(C)c1`, which Potency is on record?
Answer: Its Potency is “inactive”.

Question: Which Potency does the source give for `COc1ccc(-n2c(SC(CN3CCCCC3)CN3CCCC3=O)nc3ccccc3c2=O)cc1` (stereo not drawn) here?
Answer: The Potency was inconclusive: 11.2 µM [inhibitor, partial curve, poor fit].

Question: For `CC1CCCCN1CCCn1c(=S)[nH]c2ccccc2c1=O` (stereo not drawn), which Potency is on record?
Answer: Its Potency is inconclusive: 14.1 µM [inhibitor, single point].

Question: With `COc1ccc(C(C#N)(CCC#N)CCC#N)cc1OC` as the molecule, how does the Potency read?
Answer: The Potency was “inactive”.

Question: Which Potency does the source give for `CSc1ccc(C2N=C(c3ccccc3)NO2)cc1` (stereo not drawn) here?
Answer: Its Potency is inconclusive: 22.4 µM [inhibitor, single point].

Question: For `O=C(CSCc1n[nH]c(=O)[nH]1)NCCOc1cccc(Oc2ccccc2)c1`, which Potency is on record?
Answer: Its Potency is inconclusive: 32.6 µM [inhibitor, single point].

Question: For `Cn1ncc(Cl)c1C(=O)Nc1ccc(Cl)cn1`, which Potency is on record?
Answer: Its Potency is “inactive”.

Question: For `Cc1ccc(S(=O)(=O)N(C)c2ccc(OCC(=O)Nc3ccc(C(=O)N(C)C)cc3)cc2)cc1C`, which Potency is on record?
Answer: The Potency was “inactive”.

Question: With `Cc1cccc2c(N=Nc3ccccc3)c(O)[nH]c12` as the molecule, how does the Potency read?
Answer: Its Potency is inconclusive: 3.55 µM [activator, partial curve, poor fit].

Question: For `Cc1cccc(C)c1NC(=O)CSCCO`, which Potency is on record?
Answer: The Potency was inconclusive: 0.13 µM [inhibitor, single point].

Question: With `Oc1[nH]c2ccccc2c1C=Nc1ccc2c(c1)OCO2` as the molecule, how does the Potency read?
Answer: The Potency was inconclusive: 29.1 µM [inhibitor, single point].

Question: Which Potency does the source give for `CN(C)c1ccc(C=C2C(=O)NC(=S)NC2=O)cc1[N+](=O)[O-]` here?
Answer: Its Potency is “inactive”.

Question: With `CC1C(=O)N(Cc2cn(Cc3ccco3)nn2)CCS(=O)(=O)N1Cc1ccc(-c2ccc(F)nc2)cc1` (stereo not drawn) as the molecule, how does the Potency read?
Answer: The Potency was inconclusive: 0.995 µM [inhibitor, full curve, poor fit].

Question: With `CC(=O)Nc1ccc(Nc2nnc(-c3ccc(C)c(S(N)(=O)=O)c3)c3ccccc23)cc1` as the molecule, how does the Potency read?
Answer: Its Potency is inconclusive: 12.6 µM [activator, single point].

Question: With `COC(=O)CC=C[C@@H](C)[C@H](OC)c1cc(F)ccc1Br` as the molecule, how does the Potency read?
Answer: The Potency was inconclusive: 0.266 µM [activator, partial curve, poor fit].

Question: With `N#C/C(=C\c1c[nH]c2ccccc12)C(=O)NC1CC1` as the molecule, how does the Potency read?
Answer: The Potency was inconclusive: 1.78 µM [activator, partial curve, poor fit].

Question: With `COc1cc(/C=N/NC(=O)c2sc3nc(C)cc(C)c3c2N)ccc1O` as the molecule, how does the Potency read?
Answer: The Potency was “inactive”.

Question: With `CC(=O)Nc1ccc(NS(=O)(=O)c2cc([N+](=O)[O-])ccc2C)cc1` as the molecule, how does the Potency read?
Answer: The Potency was “inactive”.

Question: With `COc1ccc(OC(C)C(=O)Nc2ccccc2C(F)(F)F)cc1` (stereo not drawn) as the molecule, how does the Potency read?
Answer: The Potency was inconclusive: 1 µM [inhibitor, single point].

Question: Which Potency does the source give for `CCC1SC(CC)C(=O)N(CC(=O)NC2CCCCC2)C1=O` (stereo not drawn) here?
Answer: Its Potency is inconclusive: 10 µM [inhibitor, partial curve, poor fit].

Question: For `CCOC(=O)Cc1csc(NC(=O)c2cc(C)c(C)s2)n1`, which Potency is on record?
Answer: The Potency was inconclusive: 0.562 µM [inhibitor, full curve, poor fit].

Question: For `Cc1ccc(NC(=O)C2CCCN(S(=O)(=O)c3c(C)n[nH]c3C)C2)cc1C` (stereo not drawn), which Potency is on record?
Answer: Its Potency is “inactive”.

Question: Which Potency does the source give for `CCC(=O)N1N=C(c2c(-c3ccccc3)c3cc(Cl)ccc3[nH]c2=O)CC1c1ccco1` (stereo not drawn) here?
Answer: The Potency was inconclusive: 22.4 µM [inhibitor, partial curve, poor fit].

Question: For `CCOc1ccccc1-n1nnnc1SCC(=O)NC(=O)Nc1ccc2c(c1)OCCO2`, which Potency is on record?
Answer: Its Potency is inconclusive: 17.8 µM [inhibitor, single point].

Question: For `COc1ccccc1S(=O)(=O)Nc1cc(S(=O)(=O)N2CCCCC2)ccc1N1CCOCC1`, which Potency is on record?
Answer: Its Potency is inconclusive: 1.41 µM [inhibitor, partial curve, poor fit].

Question: With `Cc1cnc(C(=O)Nc2ccc(N3CCCCC3)cc2)cn1` as the molecule, how does the Potency read?
Answer: The Potency was inconclusive: 0.631 µM [activator, full curve].

Question: With `CC1CN(CC(O)COC2CCC(C(C)(C)C)CC2)CC(C)O1` (stereo not drawn) as the molecule, how does the Potency read?
Answer: The Potency was inconclusive: 12.6 µM [inhibitor, single point].

Question: Which Potency does the source give for `CCOc1ccc(NC(=O)/C(C#N)=C/c2ccc(N3CCCC3)c(C)c2)cc1` here?
Answer: The Potency was inconclusive: 6.31 µM [inhibitor, single point].

Question: For `CC(C)NC(=O)CN1CCN(C(=O)CCl)CC1`, which Potency is on record?
Answer: Its Potency is “inactive”.

Question: With `O=C(C1CCN(S(=O)(=O)Cc2ccccc2)CC1)N1CCN(c2cccc(Cl)c2)CC1` as the molecule, how does the Potency read?
Answer: The Potency was “inactive”.

Question: For `CCCCOC(=O)c1sc2nc(C)cc(C)c2c1N`, which Potency is on record?
Answer: The Potency was inconclusive: 3.55 µM [activator, partial curve, poor fit].

Question: Which Potency does the source give for `CN(C)CCNC(=O)C(=O)NCC1OCCN1S(=O)(=O)c1ccc2c(c1)OCCO2` (stereo not drawn) here?
Answer: The Potency was inconclusive: 6.31 µM [inhibitor, single point].
